In PubChem BioAssay AID1508600 (Functional Genomics Laboratory (NCATS/FGL), 2020):
About 3,700 (7%) of roughly 53,000 sequences were called active.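 The calls were made as follows: active = gene knockdowns whose robust z-score for IL-1 alpha signal is at least 2 or at most -2, so actives lie on both sides; inactive = the rest.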 The list shows a part of the results.

Test: Components of the Cytosolic LPS Sensing Pathway: Gene Identification via Genome-wide siRNA Screen;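 also: robust z of the log signal after scaling to non-targeting control siRNA wells of the plate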
Details: RAW264.7 macrophages, IL-1a HTRF, actives lie on both sides, screened at 100 nM (by protocol), cells primed 5 h with Pam3CSK4 first
Method in brief: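 Cells (RAW264.7, 1×10^4 per well) were transfected with siRNA at 100 nM and cultured 48h at 37 degrees C. Pam3CSK4 was added for 5 hours; LipidA transfection followed for 24 hour. IL-1a was then measured by HTRF.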

Sequence	z-score
AUUCUCUGGUUCAAGCUACTT against Olfr223	inactive: -1.04
GUUACCACACCAAAAAUGGTT against Olfr1299	inactive: -1.59
GACUACAAAGGAGAGCAAATT against Igfbp6	active: 2.07
GGGCAGUAAGACCUUCAUGTT against Dhcr24	inactive: 0.685
CCUAUGAAUGUGUUAAAGATT against Osgin2	inactive: 0.428
CCUGAAUACCAUGACAUGUTT against Tfpi2	inactive: -0.192
GGAACAACUUCGAACAUAATT against Dok3	inactive: 0.234
GCUCAGCUUGCUUCACUCATT against Lrrc8e	inactive: -1.79
AACACUGGGUACAUCUACATT against H2-Q7	inactive: 1.75
GCCGCUGUCCAUCUUUAUGTT against Tmem121b	inactive: -0.341
GGCUUUCACUGAAGAUCUUTT against Fancg	inactive: 0.0412
GCUGGAUCCAUACAAUUUGTT against Gdi2	inactive: -0.619
CCAAUGCACAGGUCAUCACTT against Lbx1	inactive: -0.457
CCUCCUAUGUCUUCCUCAUTT against Olfr1173	inactive: 0.343
GGUUAUCAUACUUUUUGUGTT against Phf10	inactive: -0.582
CGGUAAGUUAAAGAAGACATT against Erlin1	inactive: 1.35
GCCUGGCUGACGAUAUAGATT against Golga2	inactive: 0.0977
CCAAAACGGAGAAAAUCAGTT against Ccar1	inactive: -0.16
GGCAUUGAGAAGUUUGAAGTT against Fmo9	inactive: -1.07
GGCCUGUGAGACCAAUUGGTT against Zfp629	inactive: -0.528
GGACAAUGCAGUGCUGAAATT against Car2	active: 3.37
GGAGGUCCAACUAAGACACTT against Fzd8	inactive: -1.01
GCAACCUUCAUUCGUAUAUTT against Wdcp	inactive: 0.436

Sequence	z-score
GGUGUUUGAUAGGUAUCUUTT against Ptpa	inactive: -1.12
GGUGUUUCAGGUGGACUAUTT against Dzank1	inactive: 1.04
CCAUCCCAUUUAAUGGAUGTT against Olfr1257	inactive: 1.09
GGAAGCUGUUUCAAACAAATT against Ugt2b35	inactive: 0.145
GGAUUAUGGUCCAAAUAAATT against Hpcal4	inactive: 0.547
GGACAGCUACCUCAUCCAUTT against Lpcat3	active: 2.08
CCAUGUUUUCCGCUUCAAUTT against Kif1c	inactive: 0.0159
GCAUGUUACUAGGAUAACUTT against Mup20	active: 2.27
GGAUCAGGAGCUGUUUGGATT against Adamtsl4	inactive: 1.05
GGAAAAAGAGAAGACCUGCTT against Dcun1d4	inactive: -1.01
GGUGCAUUACAAAUACACATT against Ncf2	inactive: 1.05
GGUCACGUGCAGUUAUAUCTT against Rab32	inactive: -0.869
GGCCCUGUGAUAUUUCUCGTT against Pax8	inactive: -0.797
CGGACUUCAAGGACAAGAUTT against Carm1	inactive: 0.456
GGGCAAAGACAUUUUGUAUTT against Nt5c2	inactive: -0.337
GCCUGUGCCUUUUGAAUUCTT against Brox	inactive: -0.0201
CGCUACCUACAGAAUAACATT against Naif1	inactive: -0.8
CCUUUGUAAAGACUACUUATT against Ssh2	inactive: 1.87
GGAGAAGAUCAAGAUGUUCTT against Adi1	inactive: -0.0286
GGCUACAAACUUCAAGAAATT against Cel	inactive: -0.602
CGUGGUUAAGUUUGCUGGGTT against P2rx3	inactive: 1.16
GGUGGAGCUGGACAAGAAGTT against Nefm	inactive: 0.454
GGCAGAGUGCAUUUUGCUATT against Ptpn5	inactive: 0.411

Some of the entries so far, with bars between the fields:
Sequence | z-score
GGUGUUUGAUAGGUAUCUUTT against Ptpa | inactive: -1.12
GGAAGCUGUUUCAAACAAATT against Ugt2b35 | inactive: 0.145
GGACAGCUACCUCAUCCAUTT against Lpcat3 | active: 2.08
CCAUGUUUUCCGCUUCAAUTT against Kif1c | inactive: 0.0159
GCAUGUUACUAGGAUAACUTT against Mup20 | active: 2.27
GGAUCAGGAGCUGUUUGGATT against Adamtsl4 | inactive: 1.05
GGAAAAAGAGAAGACCUGCTT against Dcun1d4 | inactive: -1.01
GGUGCAUUACAAAUACACATT against Ncf2 | inactive: 1.05
CGGACUUCAAGGACAAGAUTT against Carm1 | inactive: 0.456
GGGCAAAGACAUUUUGUAUTT against Nt5c2 | inactive: -0.337
GCCUGUGCCUUUUGAAUUCTT against Brox | inactive: -0.0201
CCUUUGUAAAGACUACUUATT against Ssh2 | inactive: 1.87
GGAGAAGAUCAAGAUGUUCTT against Adi1 | inactive: -0.0286
CGUGGUUAAGUUUGCUGGGTT against P2rx3 | inactive: 1.16
GGUGGAGCUGGACAAGAAGTT against Nefm | inactive: 0.454
GGCAGAGUGCAUUUUGCUATT against Ptpn5 | inactive: 0.411

The listing continues:

Sequence	z-score
GCAUCAUACCACUGUGUUUTT against Obox1	inactive: -1
GCCAACGAGAGUAAACACGTT against 5930403N24Rik	inactive: -0.0706
GGAAUGGUAUCAGACUUCUTT against Tarm1	inactive: 1.54
GGAAGCUACCUGGAAGACATT against Meaf6	inactive: 0.0935
GGCAGAGAAAGAGCUAAAGTT against Dtx3	inactive: 0.663
GCCGAAUAUUUCGGAGCCATT against Ropn1	inactive: -0.286
GCCGAGGCUGUUGUGUUGATT against Gpaa1	inactive: -1.04
CCUCAAAAUCCUACAUCUUTT against AY702103	inactive: -0.456
CCUUUCAAGUUGUAGGCUGTT against Zfp759	inactive: 0.0416
GCUCUUAGGACAGACAGACTT against Dnajb12	inactive: 1.05
GGAGUCUUCUCAAUUUGACTT against Olfr1105	inactive: -0.617
GGUUGGCCUAAUAGUGCAUTT against Cbr1	inactive: 0.732
CCAUAUCCUUAACCUUAGGTT against Gdi1	inactive: 0.701
GGUUCUAGGGAAAAAAACATT against Celf3	inactive: -0.417
CGAAUCUCUGGCAAAAUGGTT against Cdk1	inactive: -0.0941
GGAAGAUCAAGGGACUCAUTT against Serpina3c	inactive: 0.0466
GCCUCCUUGUCUGGAAAUUTT against Aftph	inactive: -0.797
GCGUGGUCUUAACUGCUCATT against Zfat	inactive: -0.212
GGCAGAAUACUAUAUAUAGTT against Tmx2	inactive: 0.879
GGCCAGUCAAGGUUGGAUUTT against Gpr152	inactive: -0.32
GGUCAUCAACGUGCUAGAGTT against Nucb1	inactive: -1.3
GGAUAACACCACCAACUAUTT against Akap8l	inactive: 0.456
